{
  "sequences": {"note": "Protein sequences, listed by entry. Tags and fused reporters are not part of them. Residues count along the entry.", "UniProt P62136, residues 7-300": "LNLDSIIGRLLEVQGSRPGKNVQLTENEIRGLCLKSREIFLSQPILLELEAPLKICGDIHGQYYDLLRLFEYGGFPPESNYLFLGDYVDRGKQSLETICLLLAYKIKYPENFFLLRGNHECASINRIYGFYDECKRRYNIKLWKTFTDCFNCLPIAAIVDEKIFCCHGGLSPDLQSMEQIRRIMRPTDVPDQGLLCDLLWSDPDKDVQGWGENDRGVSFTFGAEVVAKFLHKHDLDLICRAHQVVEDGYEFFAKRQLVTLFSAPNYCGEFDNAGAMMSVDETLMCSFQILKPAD"},
  "source": "paper PMC5652740",
  "about": "“Inhibition of HIV-1 infection in humanized mice and metabolic stability of protein phosphatase-1-targeting small molecule 1E7-03” (Oncotarget, 2017)",
  "target": "human PP1α (residues 7–300) (human) (UniProt P62136)",
  "experiment": "SPR; PP1 immobilised on a CM5 chip by amine coupling (about 3160 RU); Biacore T200, 25°C; running buffer 0.01 M HEPES pH 7.4, […] NaCl, 0.005% Surfactant P20, 1% DMSO, 2 mM MnCl2; 1:1 binding model; both purified",
  "note": "No constants are given. Whether binding was seen depends on the method and setting.",
  "data": [
    {"substance": "mutant pRb-Tat peptide with QACA mutation in the RVxF motif (from UniProt P04608 28-41)", "values": [
      {"measurement": "binding", "result": "no binding"}
    ]}
  ]
}
